Experimental data taken from PubChem BioAssay AID624297 (National Center for Advancing Translational Sciences (NCATS), 2012).
Out of some 340,000 compounds screened, about 6,200 (1.8%) were called active. The shares of active, inactive and inconclusive entries below differ from those in the screen. Calls come from the whole dose curve; as a rule, active = well fitted activation curve with a large enough effect; inconclusive = small, poorly fitted or top-dose-only effect; inactive = no such curve, though single readings can be large or run the other way. A potency beside an inconclusive call is a rough fit, not a confirmed value.

test: A quantitative high throughput screen for small molecules that induce DNA re-replication in SW480 colon adenocarcinoma cells.; note: nearly all actives have a fitted effect of over 55% in size; for re-replication activation: % of control where 0% means no effect; settings: Hoechst DNA content imaging, 48 h; re-replication activation: at 46.1 µM (top of the series) unless noted
In short: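 Quantitative HTS format with DMSO vehicle controls; 48 hr drug incubation at 37 C, then 40 min Hoechst staining and scanning imager measurement at 405 nm excitation.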
Potency is the fitted concentration of half-maximal effect.

Row | SMILES | Potency | re-replication activation
1 | Fc1ccccc1-n1c(-c2ccc3ccccc3n2)n[nH]c1=S | inconclusive: 3.66 µM [activator, single point] | 
2 | N/C(=N\S(=O)(=O)c1cc(C(F)(F)F)cc(C(F)(F)F)c1)c1cccs1 | inconclusive: 2.31 µM [activator, full curve, poor fit] | 
3 | COc1cc(OC)cc(C(=O)Nc2ccccc2C(=O)NC2CC2)c1 | inconclusive: 23.1 µM [activator, single point] | 
4 | CCCCN(CCCC)S(=O)(=O)c1ccc(OC)c2ncccc12 | inconclusive: 16.4 µM [activator, partial curve, poor fit] | 
5 | CCOc1cc(C(=S)N2CCOCC2)ccc1OS(=O)(=O)c1ccc(NC(C)=O)cc1 | inconclusive: 29.1 µM [activator, single point] | 
6 | CC(=O)c1ccc(-c2c(C)cc3oc(=O)cc(-c4ccccc4)c3c2C)cc1 | inactive | 
7 | Cc1ccc(CN2CC(C(=O)N3CCN(S(=O)(=O)c4cc(C)ccc4C)CC3)CC2=O)cc1 (stereo not drawn) | inactive | 
8 | CCOC(=O)N1CCC2(CC1)C(C#N)=C(N)OC1=C2C(=O)CC(C)C1 (stereo not drawn) | inactive | 
9 | CC(C)(C)c1nc(NC(=O)Nc2ccccc2)sc1Br | inactive | 
10 | CCN(Cc1ccccc1)C(=O)C1CCN(C/C(C)=C/c2ccccc2)CC1 | inconclusive: 29.1 µM [activator, partial curve, poor fit] | 
11 | CC(C)[C@H]1C(=O)Nc2ccccc2N1C(=O)N[C@@H](Cc1ccccc1)C(=O)N[C@@H](Cc1ccccc1)C(=O)O | inconclusive: 32.6 µM [activator, single point] | 
12 | O=C(CN1C(=O)c2cccc3cccc1c23)NC1CCCCC1 | inconclusive: 23.1 µM [activator, partial curve, poor fit] | 
13 | Nc1ccc2c(c1)C(=O)N(c1cccc3ccccc13)C2=O | inactive | 
14 | COc1ccc(CCNC(=O)c2coc3ccccc3c2=O)cc1OC | inconclusive: 7.31 µM [activator, partial curve, poor fit] | 
15 | O=C(O)C1CCCN(S(=O)(=O)c2ccccc2[N+](=O)[O-])C1 (stereo not drawn) | inactive | 
16 | Cc1ccc(C)c(N2CCN(C(=O)CCCCCn3c(=S)[nH]c4ccc(N5CCOCC5)cc4c3=O)CC2)c1 | inconclusive: 13 µM [activator, partial curve] | 
17 | COc1ccc(C(=O)NNC(=O)C2(C)CC2(Br)Br)cc1 (stereo not drawn) | inconclusive: 14.6 µM [activator, partial curve, poor fit] | 
18 | NC(=O)c1ccsc1NC(=O)CSc1ccccc1F | inactive | 
19 | O=C(CNC(=O)c1ccc(Br)o1)NC1CCCCC1 | inconclusive: 29.1 µM [activator, single point] | 
20 | CC1(C)CC2CC(C)(CN2C(=O)c2cc(-c3ccccc3)on2)C1 (stereo not drawn) | inactive | 
21 | CCc1ccccc1NC(=O)CN1CCN(CC(=O)Nc2ccc3c(c2)OC2(CCCCC2)O3)CC1 | active: 8.2 µM | 
22 | COc1ccc(/C=C(\C#N)C(=O)NCc2ccccc2)cc1 | inconclusive: 20.6 µM [activator, single point] | 
23 | Cc1ccc(C(=O)N[C@H](C(=O)OCc2cc(=O)oc3cc(C)ccc23)C(C)C)cc1 | inactive | 

Row | SMILES | Potency | re-replication activation
24 | O=C(NCc1ccc2c(c1)OCO2)c1nc(S(=O)(=O)Cc2ccccc2)ncc1Cl | inconclusive: 4.61 µM [activator, single point] | 
25 | COc1ccc(N2CCN(C(c3cccs3)C(C)NC(=O)C(=O)N3CCCC3)CC2)cc1 (stereo not drawn) | inactive | 
26 | CC(C)CNC(=O)c1cccc(NC(=O)c2ccccc2-c2ccccc2C(=O)O)c1 |  | inconclusive: 47.3% [activator]
27 | COc1ccc(/C=C/C(=O)N(C)CC(=O)Nc2cccc(F)c2)cc1S(=O)(=O)N1CCCCC1 | active: 20.6 µM | 
28 | O=C1N/C(=C/c2ccc(N3CCOCC3)o2)C(=O)N1c1cccc(Cl)c1 | active: 4.61 µM | 
29 | Cc1ccc(C(=O)NC(C)c2ccc(-n3ccnc3)cc2)c(C)c1 (stereo not drawn) | inconclusive: 6.51 µM [activator, partial curve, poor fit] | 
30 | Cc1occc1C(=O)N/N=C/c1sc(N2CCOCC2)nc1-c1ccccc1 | inconclusive: 0.116 µM [activator, full curve, poor fit] | 
31 | CC(C)C[C@H]1CNC(=S)N1CC1CCN(CCC23CC4CC(CC(C4)C2)C3)CC1 | inconclusive: 3.26 µM [activator, partial curve, poor fit] | 
32 | CC(C)N1CCN(Cc2cccn2-c2nccs2)CC1CCO (stereo not drawn) | inactive | 
33 | O=C1c2ccc(-c3nc4ccccc4o3)cc2C(=O)N1Cc1cccnc1 | inconclusive: 29.1 µM [activator, single point] | 
34 | O=C(Nc1ccncc1)c1ccc(Cl)c(S(=O)(=O)N2CCCCC2)c1 | inactive | 
35 | CC(C)CC(C(=O)Nc1ccccc1)N1C(=O)C2C3C=CC(C3)C2C1=O (stereo not drawn) | inconclusive: 0.82 µM [activator, single point] | 
36 | CC(=NNS(=O)(=O)c1cccc([N+](=O)[O-])c1)c1ccc(-n2ccnc2)cc1 | inactive | 
37 | CC1CN(CC(O)c2ccc(Br)cc2)CCO1 (stereo not drawn) | inactive | 
38 | Cc1n[nH]c(C)c1NC(=O)CN1CCN(S(=O)(=O)c2ccc(C(F)(F)F)cc2)CC1 | inconclusive: 18.4 µM [activator, single point] | 
39 | Cc1ccc(/C=N/Nc2cccc3cccnc23)c(O)c1 | inconclusive: 25.9 µM [activator, single point] | 
40 | CCOc1cc(/C=N/NC(=O)c2cc(-c3cccc(OC)c3)nc3ccccc23)ccc1O | inconclusive: 29.1 µM [activator, single point] | 
41 | Cc1c(-c2ccc(F)cc2)nc(N)c(C#N)c1-c1cccnc1 | inconclusive: 4.11 µM [activator, full curve, poor fit] | 
42 | Cc1cc2c(SCC(=O)Nc3cccc(O)c3)ncnc2s1 | inconclusive: 16.4 µM [activator, partial curve, poor fit] | 
43 | CCCCCCCCc1c(O)nc(-n2[nH]c(C)c(CCO)c2=O)[nH]c1=O | inconclusive: 20.6 µM [activator, single point] | 
44 | N#C/C(=C\c1cn(CC(=O)N2CCCCC2)c2ccccc12)C(=O)NCc1ccc2c(c1)OCO2 | active: 1.64 µM | 
45 | O=C(NCCN1CCNCC1)c1ccccc1O | inconclusive: 4.61 µM [activator, full curve, poor fit] | 
46 | Cc1ccc2cc3cc(C(=O)NCCCN4CCCCCC4)oc3nc2c1 |  | inactive: 2.88% [at 9.22 µM]

Record cards (already shown).
NC(=O)c1ccsc1NC(=O)CSc1ccccc1F is entered as Potency: inactive
O=C1c2ccc(-c3nc4ccccc4o3)cc2C(=O)N1Cc1cccnc1 is entered as Potency: inconclusive: 29.1 µM [activator, single point]
CC1CN(CC(O)c2ccc(Br)cc2)CCO1 (stereo not drawn) is entered as Potency: inactive

The list goes on.

Row | SMILES | Potency | re-replication activation
47 | CC(C)N1C(=O)S/C(=C/c2ccc3c(c2)n(C)c(=O)n3C)C1=O | inconclusive: 29.1 µM [activator, partial curve, poor fit] | 
48 | CC(C)(C)OC(=O)C1C(=O)CC(C)(O)C(C(=O)OC(C)(C)C)C1c1ccco1 (stereo not drawn) | inconclusive: 20.6 µM [activator, partial curve, poor fit] | 
49 | COc1ccc(-c2ccc(-c3nc4ccc(C)cn4c3NC3CCCCC3)cc2OC)cc1 | inconclusive: 16.4 µM [activator, single point] | 
50 | CN1CCN(CCCNC(=O)c2ccc(/C=C3/Sc4ccccc4N(Cc4cccc(Cl)c4)C3=O)cc2)CC1 | inconclusive: 20.6 µM [activator, single point] | 
51 | COc1ccc(C(=O)NN/C(C)=C/C(=O)c2ccccc2)cc1 | inactive | 
52 | CC(C(=O)Nc1cccc(C#N)c1)N(C)CCOc1ccccc1 (stereo not drawn) | inactive | 
53 | O=c1c2c(-c3ccco3)csc2nc(SCc2cn3cccnc3n2)n1-c1ccccc1 | inconclusive: 29.1 µM [activator, single point] | 
54 | CC(C)Cn1cc(C(=O)NCCCN2CCC(C)CC2)c2c3ccccc3n(C)c2c1=O | inactive | 
55 | O=C(Nc1ccc(Br)cn1)c1ccc(Cl)s1 | inconclusive: 14.6 µM [activator, partial curve, poor fit] | 
56 | COC(=O)c1ccc(C)c(NC(=O)Cc2coc3cc(OC)ccc23)c1 | inactive | 
57 | COc1ccccc1CCNCc1ccc(OC)c(OCc2ccccc2)c1 | inconclusive: 29.1 µM [activator, single point] | 
58 | CCc1cc2c(=O)n(C(C)C(=O)OC3CCCCC3)cnc2s1 (stereo not drawn) | inactive | 
59 | CC(C)(C)CC(C)(C)NC(=O)c1ccc2snnc2c1 | inconclusive: 20.6 µM [activator, partial curve, poor fit] | 
60 | Cc1ccc(CNC(=O)Cn2cnc(S(=O)(=O)N3CCC(C)CC3)c2)o1 | inconclusive: 0.651 µM [activator, full curve, poor fit] | 
61 | COc1cccc(C2c3cc4c(cc3OC(N3CCCC3)C2C)OCO4)c1O (stereo not drawn) | inconclusive: 20.6 µM [activator, single point] | 
62 | O=C(Nc1nc(-c2ccc(Cl)cc2)cs1)C1CCCO1 (stereo not drawn) | inactive | 
63 | CC(=O)Cc1nsc(NC(=O)c2ccc(-c3cccc(C(F)(F)F)c3)o2)n1 | inconclusive: 16.4 µM [activator, single point] | 
64 | CC(C)Cc1nnc(NC(=O)CCC(=O)N2CC(C)CC(C)C2)s1 (stereo not drawn) | inactive | 
65 | C=CS(=O)(=O)N(Cc1ccccc1Br)[C@H](CO)Cc1ccccc1 | inconclusive: 8.2 µM [activator, partial curve, poor fit] | 
66 | CC(=O)c1cc2c(cc1NC(=O)CN1Cc3ccccc3C1=O)OCO2 | inconclusive: 6.51 µM [activator, single point] | 
67 | O=[N+]([O-])c1cccc(/C=N/Nc2nc(NCc3ccccc3)nc(N3CCOCC3)n2)c1 | inconclusive: 18.4 µM [activator, partial curve, poor fit] | 
68 | CC(=O)C1=C(O)C(=O)N(c2ccccn2)C1c1ccccc1[N+](=O)[O-] (stereo not drawn) | active: 20.6 µM | 
